# Reference: US10266565B2, “Peptide mimetic ligands of polo-like kinase 1 polo box domain and methods of use” (The United States of America, as represented by the …, priority 2011, dated 2019)
# “Also recorded” adds a separate entry of the source. For part of these data: Not every detail of the peptide structures is certain; ends, links or a residue may be inferred. Some entries share one result that the patent states for a list of compounds. *1 amine or outer side, *2 acyl side, *3 side chain or, on linkers, in order; H or OH if unused. Where a SMILES comes first, the peptide text is derived from it. [ ]: non-standard residue; d: D form. The star is where a group is joined. His(π-(CH2)8Ph) = N[C@@H](Cc1cncn1CCCCCCCCc1ccccc1)C(=O)O; Abu(3R-Me,4-PO3H2) = C[C@@H](CP(=O)(O)O)[C@H](N)C(=O)O; CH3O(CH2CH2O)7C2H4CO = COCCOCCOCCOCCOCCOCCOCCOCCC(=O)*; X1 = C[C@H]([C@H](N[*:1])C(=O)[*:2])C(F)(F)P(=O)(O)O
# How the values were obtained:
# Plk1 = target: T1, Plk1 (Homo sapiens, UniProt P53350, K82M); test: Peptide pull-down assay with bead-immobilized peptides, Plk1; assay type: binding; conditions: PBD pull-down, transfected 293T cells
# T1 construct: we used total lysates prepared from mitotic HeLa cells; endogenous in cells; host or cells: mitotic (nocodazole-arrested) HeLa cells
# Method: For Plk1 pull-down assays with immobilized peptides, we used total lysates prepared from mitotic HeLa cells. […] Cells treated with 200 ng/ml of nocodazole for 16 h were lysed in TBSN buffer {20 mM Tris-Cl (pH8.0), 150 mM NaCl, 0.5% NP-40, 5 mM EGTA, 1.5 mM EDTA, 0.5 mM Na3VO4, 20 mM p-nitrophenyl phosphate, and protease inhibitor cocktail (Roche, Nutley, N.J.)}, and then clarified by centrifugation at 15,000×g for 20 min at 4° C. The resulting lysates were incubated with bead-immobilized peptides (40 μM per binding) for 2 h, precipitated, washed, and then boiled in sodium dodecyl sulfate (SDS) sample buffer to elute the associated proteins. Samples were separated by 10% SDS-polyacrylamide gel electrophoresis (PAGE), and then either stained with silver or transferred to PVDF membrane for immunoblotting analysis with anti-Plk1 antibody using the enhanced chemiluminescence (ECL) detection system (Pierce). […]
# Plk2 PBD = target: T2, Plk2 PBD (Homo sapiens, UniProt Q9NYY3); test: Isothermal titration calorimetry with recombinant Plk2 PBD; conditions: titrated into Plk2 PBD
# T2 sequence (Q9NYY3 373-685): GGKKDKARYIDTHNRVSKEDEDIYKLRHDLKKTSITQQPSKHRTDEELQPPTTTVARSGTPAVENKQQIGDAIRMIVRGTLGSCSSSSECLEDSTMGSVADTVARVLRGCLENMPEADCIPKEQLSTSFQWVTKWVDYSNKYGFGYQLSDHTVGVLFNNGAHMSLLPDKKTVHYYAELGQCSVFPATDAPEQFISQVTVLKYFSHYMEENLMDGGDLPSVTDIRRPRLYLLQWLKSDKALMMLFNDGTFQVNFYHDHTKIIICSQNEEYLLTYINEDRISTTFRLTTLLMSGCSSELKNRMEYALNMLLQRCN
# Plk1 PBD = Plk1 PBD (Homo sapiens, UniProt P53350); test: ELISA-based PBD-binding inhibition assay (immobilized biotinylated p-T78 peptide, HA-EGFP-Plk1 lysates); conditions: relative to the comparator named in the sentence
structure (smiles),measurement,setting,value
"COCCOCCOCCOCCOCCOCCOCCOCCC(=O)N1CCC[C@H]1C(=O)N[C@@H](CC(C)C)C(=O)N[C@@H](Cc1cncn1CCCCCCCCc1ccccc1)C(=O)N[C@@H](C)C(=O)N[C@H](C(N)=O)[C@@H](C)CP(=O)(O)O [PEG-4j* (S/A)] ({CH3O(CH2CH2O)7C2H4CO}-PL[His(π-(CH2)8Ph)]A[Abu(3R-Me,4-PO3H2)]-NH2)",loss of affinity of S/A mutants,Plk1,4-5 fold
"CSCC[C@H](N)C(=O)N[C@@H](CCC(N)=O)C(=O)N[C@@H](CO)C(=O)N[C@H](C(=O)N1CCC[C@H]1C(=O)N[C@@H](CC(C)C)C(N)=O)[C@@H](C)OP(=O)(O)O [MQSpTPL, reference compound]",initial heats of interaction,Plk2 PBD,-1.68 kcal/mol
"CC(=O)N1CCC[C@H]1C(=O)N[C@@H](CC(C)C)C(=O)N[C@@H](Cc1c[nH]cn1)C(=O)N[C@@H](CO)C(=O)N[C@H](C(=O)N[C@@H](C)C(N)=O)[C@@H](C)C(F)(F)P(=O)(O)O [compound 25, PLHS-F2Pmab-A] (Ac-PLHS[X1]A-NH2)","Plk1 PBD-binding affinity / inhibition, in words",Plk1 PBD,much weaker PBD-binding affinity; also recorded: inhibits the interaction at a somewhat reduced level
